# Measurements taken from PubChem BioAssay AID485314 (National Center for Advancing Translational Sciences (NCATS), 2010).
# Screen size: about 340,000 compounds; about 4,500 (1.3%) were called active. The inconclusive results got no clear call from the source; some entries with a clear call stand among them for comparison. Calls follow the shape of the dose curve; as a rule, active = well fitted inhibition curve with a large enough effect; inconclusive = small, poorly fitted or top-dose-only effect, or another doubt; inactive = no such curve, though single readings can be large or run the other way. Potencies of inconclusive entries are doubtful fits and often do not repeat.
# Molecular target: DNA polymerase beta (Homo sapiens) (UniProt P06746)
# Assay: qHTS Assay for Inhibitors of DNA Polymerase Beta
# Settings: Pol beta primer extension/strand displacement, fluorescence kinetic; activity change, negative = inhibition: at 114 µM (top of the series)
# Method in brief: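 Homogeneous kinetic assay of primer extension and strand displacement by 10 nM Pol beta, preincubated 15 min at room temperature with compound before 50 nM substrate (final) was added. Read at 0 and 10 min; four-parameter Hill fit.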
# % is scaled to controls: 0 for no effect and ±100 for the full control effect; potency is read from the fitted curve at half-maximal effect.
SMILES,Potency,"activity change, negative = inhibition"
COc1cccc(/C=N/NC(=O)c2ccc3nc[nH]c3c2)c1,"inconclusive: 22.4 µM [inhibitor, full curve, poor fit]",
COc1ccc(NC(=O)c2nc[nH]c2C(=O)N[C@H](C)c2ccccc2)cc1,,inactive: 19.6%
CNc1ccc(Br)cc(C(=O)/C=C/c2cccc(OC)c2OC)c1=O,active: 20 µM,
CCN1/C(=C/C=C/c2oc3ccc4ccccc4c3[n+]2CC)Oc2ccc3ccccc3c21,active: 6.31 µM,
O=C(NC(=S)N1CCCc2ccccc21)c1ccc([N+](=O)[O-])cc1,"inconclusive: 89.1 µM [inhibitor, single point]",
Cc1nc(N)sc1C(=O)N/N=C/c1c[nH]c2ccccc12,"inconclusive: 39.8 µM [inhibitor, partial curve]",
Cc1ccc(NC(=O)CN(C)C(=O)Cn2ncc(Cl)c(Cl)c2=O)cc1,"inconclusive: 31.6 µM [inhibitor, full curve]",
O=C(O)COc1ccccc1/C=C1\SC(=Nc2ccc(F)cc2)N(c2ccc(F)cc2)C1=O,,inactive: -5.15%
COc1cccc(NC(=O)Cn2cc(C(=O)c3ccco3)c3ccccc32)c1,,inactive: -0.989%
C=C(C)C(=O)Nc1cccc(C2=NOC3(C2)C[C@@H](C(N)=O)N(C(=O)/C=C/C=C/C)C3)c1 (stereo not given in full),active: 2.51 µM,
N#C/C(=C(/O)CN1CCCCC1)c1nc(-c2ccc(Cl)cc2)cs1,,inactive: 0.121%
CC1c2[nH]c3ccccc3c2CCN1S(C)(=O)=O (stereo not given),"inconclusive: 89.1 µM [inhibitor, single point]",
COc1cccc(NC(=O)Cn2c(=O)n(CCCCC(=O)NCc3ccccc3Cl)c(=O)c3ccccc32)c1,,inactive: -0.379%
CCOc1ccccc1N1CCN(S(=O)(=O)c2ccc(C3CCCCC3)cc2)CC1,,inactive: 2.66%
COc1cccc(Oc2cc(NN3CCCCC3)c([N+](=O)[O-])cc2[N+](=O)[O-])c1OC,active: 56.2 µM,
COc1ccc(C(=O)COC(=O)CNC(=O)C2CCCCC2)c(OC)c1,active: 22.4 µM,
COCCn1c(C)cc(C(=O)COC(=O)c2ccc3ncsc3c2)c1C,"inconclusive: 0.0251 µM [inhibitor, full curve, poor fit]",
Cc1nn(-c2cccc(C(F)(F)F)c2)c(Cl)c1/C=N/Nc1cccc(C(=O)O)c1,active: 56.2 µM,
CC(C)C(=O)Nc1ccccc1C(=O)N/N=C/c1ccc([N+](=O)[O-])cc1,"inconclusive: 39.8 µM [inhibitor, full curve]",
N#CC1=C(SCC(=O)Nc2ccc(C(=O)O)cc2)NC(=O)CC1c1ccco1 (stereo not given),"inconclusive: 11.2 µM [inhibitor, full curve]",
CCC(=O)Nc1ccc(C(=O)N/N=C/c2c(C)[nH]c3ccccc23)cc1,"inconclusive: 0.708 µM [inhibitor, partial curve, poor fit]",
CCN(CC)CCCNC(=O)c1cc2c(-c3cccc(OC)c3)nn(C)c2s1,,inactive: -26.9%
CCCn1c(=O)c2sccc2n2c(CCCC(=O)NC3CCN(Cc4ccccc4)CC3)nnc12,,inactive: -7.21%
O=C(CCc1nnc2ccc(NCc3ccco3)nn12)N1CCN(c2ccccc2F)CC1,"inconclusive: 44.7 µM [inhibitor, partial curve]",

SMILES,Potency,"activity change, negative = inhibition"
O=C(Nc1ccc(S(=O)(=O)Nc2nccs2)cc1)c1nn(-c2ccccc2)ccc1=O,,inconclusive: -111% [inhibitor]
COc1cc(Cl)c(C)cc1NC(=O)CSc1sc2c(O)cc(=O)[nH]c2c1C#N,"inconclusive: 14.1 µM [inhibitor, partial curve, poor fit]",
CCCOC(=O)C1=C(C)N(C)C(=O)NC1c1cc2c(cc1[N+](=O)[O-])OCO2 (stereo not given),"inconclusive: 3.55 µM [inhibitor, full curve, poor fit]",
S=C(NCCc1ccccc1)Nc1ccc(Cl)cc1Cl,,inactive: -16.8%
Cc1ccc(C2CC(=O)N3CN(Cc4ccco4)CSC3=C2C#N)cc1 (stereo not given),,inactive: 4.73%
CCNc1nc(-c2cc(C)n(Cc3ccco3)c2C)cs1,"inconclusive: 10 µM [inhibitor, full curve]",
CCOC(=O)N1CCC(N2C(=O)c3ccccc3C2Nc2ccc(S(=O)(=O)N3CCOCC3)cc2)CC1 (stereo not given),"inconclusive: 35.5 µM [inhibitor, single point]",
N=C1CCC(=N)c2c1c(O)c1ccccc1c2O,active: 39.8 µM,
O=C1C(=O)N(Cc2cccnc2)C(c2cccc(Br)c2)/C1=C(/O)c1ccc2c(c1)OCO2 (stereo not given),"inconclusive: 39.8 µM [inhibitor, single point]",
Cc1cc(C(=O)O)ccc1-c1ccc(/C=C2\NC(=O)N(Cc3ccccc3Cl)C2=O)o1,active: 14.1 µM,
CCOc1nc(-c2ccccc2O)nc2ccccc12,"inconclusive: 89.1 µM [inhibitor, single point]",
Cc1ccc2c(=O)cc(C(=O)Nc3c(C(=O)c4ccc(F)cc4)oc4ccccc34)oc2c1C,,inactive: 17.3%
CN=c1nc(-c2ccccc2)n(-c2ccccc2)s1,"inconclusive: 35.5 µM [inhibitor, partial curve]",
Cn1c(=O)c2c(nc(SCc3cccnc3)n2Cc2ccc(F)cc2)n(C)c1=O,"inconclusive: 89.1 µM [inhibitor, single point]",
CCCCN(C)C(=O)c1nc2ccccn2c1CN1CCN(C/C=C/c2ccccc2)CC1,"inconclusive: 79.4 µM [inhibitor, single point]",
Cc1ccc(Nc2ccc(N)cc2S(=O)(=O)O)cc1,"inconclusive: 39.8 µM [inhibitor, single point]",
Cn1cccc1-c1cc(C(=O)N/N=C/C=C/c2ccccc2)[nH]n1,active: 10 µM,
Cn1cccc1C(=O)OCC(=O)c1cc2ccccc2o1,"inconclusive: 15.8 µM [inhibitor, full curve]",
COc1ccccc1CNC(=O)C1CCN(c2nnc(C)c3c(C)n(-c4ccccc4)nc23)CC1,"inconclusive: 10 µM [inhibitor, full curve, poor fit]",
Cc1ccccc1CSCC(=O)NNC(=S)NCC1CCCO1 (stereo not given),"inconclusive: 100 µM [inhibitor, single point]",
O=C(N=Nc1c(O)n(Cc2ccccc2)c2ccccc12)c1cc2ccccc2cc1O,"inconclusive: 17.8 µM [inhibitor, partial curve, poor fit]",
CCCCNC(=O)CSc1nc2ccc(N3CCOCC3)cc2c(=O)n1Cc1ccc(OC)cc1,"inconclusive: 44.7 µM [inhibitor, partial curve]",
COc1ccc(CC(=O)NNC(=O)c2nn(Cc3ccccc3)c(=O)c3ccccc23)cc1OC,"inconclusive: 89.1 µM [inhibitor, single point]",
O=C(Cc1ccccc1)Nc1cccc(N2C(=O)C=CC2=O)c1,,inactive: 13.7%

# Looked up above.
# Under Potency, CCOC(=O)N1CCC(N2C(=O)c3ccccc3C2Nc2ccc(S(=O)(=O)N3CCOCC3)cc2)CC1 (stereo not given) is entered as inconclusive: 35.5 µM [inhibitor, single point]
# Under Potency, CN=c1nc(-c2ccccc2)n(-c2ccccc2)s1 is entered as inconclusive: 35.5 µM [inhibitor, partial curve]
# Under Potency, O=C(CCc1nnc2ccc(NCc3ccco3)nn12)N1CCN(c2ccccc2F)CC1 is entered as inconclusive: 44.7 µM [inhibitor, partial curve]
# Under activity change, negative = inhibition, S=C(NCCc1ccccc1)Nc1ccc(Cl)cc1Cl is entered as inactive: -16.8%

# Next structures.

SMILES,Potency,"activity change, negative = inhibition"
O=C(Nc1nnc(-c2ccc(F)cc2)o1)c1ccco1,"inconclusive: 89.1 µM [inhibitor, single point]",
Cc1cccc(SCC(=O)Nc2ccccc2[N+](=O)[O-])c1,"inconclusive: 0.891 µM [inhibitor, full curve, poor fit]",
COCCSc1ccccc1C(=O)NCc1ccco1,"inconclusive: 0.631 µM [inhibitor, full curve, poor fit]",
Cc1ccc(C(C)C)c(OCC(=O)Nc2ccc(O)c(-c3nc4cc(Cl)ccc4o3)c2)c1,,inconclusive: -31% [inhibitor]
CCCc1nc2scc(-c3ccccc3)c2c(=O)n1N,,inactive: -4.35%
CCc1ccc(NC(=O)CC2S/C(=N/N=C3CCCCCC3)NC2=O)cc1 (stereo not given),"inconclusive: 28.2 µM [inhibitor, single point]",
COc1ccccc1-n1c(=S)[nH]c2c(sc(=S)n2-c2ccccc2C)c1=O,"inconclusive: 89.1 µM [inhibitor, single point]",
COc1cc(-c2nc3ccccn3c2/N=C/c2ccc(F)cc2)ccc1O,"inconclusive: 89.1 µM [inhibitor, single point]",
COc1ccc(CCNC(=O)CS(=O)(=O)Cc2nc(-c3cccc(Cl)c3)oc2C)cc1OC,,inactive: 35.8%
Cc1cc(C)c2cc(C#N)c(SCC(=O)NCc3ccco3)nc2c1,active: 20 µM,
CCOc1cc(N2CCOCC2)c(OCC)cc1NS(=O)(=O)c1cc(NC(C)=O)ccc1OC,"inconclusive: 79.4 µM [inhibitor, partial curve]",
CCCNC(=O)c1c(NC(=O)c2ccccc2)sc2c1CCC(C(C)(C)C)C2 (stereo not given),"inconclusive: 1.78 µM [inhibitor, partial curve]",
Cc1cccc(CCNC(=O)CCS(=O)(=O)c2cc3c(cc2C)NC(=O)CO3)c1,"inconclusive: 79.4 µM [inhibitor, single point]",
Cn1cnc(S(=O)(=O)N2CCC(C(=O)Nc3ccc(Cl)c(C(F)(F)F)c3)CC2)c1,,inactive: -0.458%
Clc1ccc(-n2cccc2)cn1,"inconclusive: 89.1 µM [inhibitor, single point]",
C=CCNC(=O)C(=O)NCC(c1ccc2c(c1)OCO2)N1CCN(c2ccc(F)cc2)CC1 (stereo not given),,inconclusive: -31% [inhibitor]
CCOc1ccc(CCNC(=O)c2nnn(CC(=O)Nc3ccc(C)cc3)c2N)cc1OCC,active: 25.1 µM,
COc1ccc(NC(=O)CSCc2cc(=O)n3cc(C)sc3n2)cc1,,inactive: -13.1%
CC(=O)n1cc(N(C(=O)CCl)c2ccc(Cl)cc2)c2ccccc21,,inactive: 15.2%
CCOc1cccc(=O)c2c(C)n(Cc3ccccc3)c(C)c12,"inconclusive: 63.1 µM [inhibitor, single point]",
COc1ccc(C(=O)N/N=C(\C)c2ccc3c(c2)C2C=CCC2C(c2ccccc2)N3)cc1 (stereo not given),,inactive: 17.4%
Cc1cccc2c1nc(-c1ccccc1)n1cnnc21,"inconclusive: 22.4 µM [inhibitor, full curve]",
